Assay results: PubChem BioAssay AID192 (DTP/NCI, 2004)
The list shows only some results of the screen, not a fair sample: it gathers tests that were run many times, whatever their T/C, doses with no T/C, and many T/C values between a quarter and a half above the control. Further doses and runs are listed elsewhere. T/C: endpoint of the treated group in % of that of the vehicle group. Some entries give survivors of the animals treated and no T/C: the source files T/C as zero there, which appears to mark a toxic dose or a test without result, not a measured value. Some survivor counts are full or nearly so, which does not show that the dose was tolerated: survival well below the control is almost never listed, so the zero probably covers shortened survival too. Survivors were counted at the toxicity check, usually on the fifth day, unless a day is given; later deaths do not show. Schedule codes are those of the source, taken here to give the interval after Q, in days (D) or hours (H), and the number of doses after X. Some entries hold several experiments; the results are listed from low to high. For survival time, this PubChem deposit counts one and a half times the control or more as active, and values a quarter to a half above the control carry no call in these data; other NCI protocols may use other cut-offs. Some T/C values carry the count of animals alive at the toxicity check (mostly the fifth day); where none is given, no animal had died by that day. Signs of the kind (2×) stand for listed records that agree. Peptide text beside a SMILES is read from it. * marks the point of attachment. Cbz = O=C(OCc1ccccc1)*

Tested on: BDF1 mice, B16 melanoma ip, median survival T/C
Assay: NCI In Vivo Anticancer Drug Screen. Data for tumor model B16 Melanoma (intraperitoneal) in B6D2F1 (BDF1) mice
Conditions: T/C endpoint: median survival time, higher T/C = longer survival
How it was run: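 In this screen, activity was judged from survival or tumor size in treated versus vehicle-treated tumor-bearing mice, reported as T/C.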

[1] = dose: 0.25 mg/kg/injection, schedule: Q01DX009 (ip), vehicle: saline with Tween-80
[2] = dose: 0.5 mg/kg/injection, schedule: Q01DX009 (ip), vehicle: saline with Tween-80
[3] = dose: 1.0 mg/kg/injection, schedule: Q01DX009 (ip), vehicle: saline with Tween-80
[4] = dose: 200.0 mg/kg/injection, schedule: Q01DX009 (ip), vehicle: Klucel (hydroxypropylcellulose) (HPC)
[5] = dose: 12.5 mg/kg/injection, schedule: Q01DX009 (ip), vehicle: saline with Tween-80
[6] = dose: 50.0 mg/kg/injection, schedule: Q01DX009 (ip), vehicle: saline with Tween-80
[7] = dose: 400.0 mg/kg/injection, schedule: Q01DX009 (ip), vehicle: Klucel (hydroxypropylcellulose) (HPC)
[8] = dose: 100.0 mg/kg/injection, schedule: Q01DX009 (ip), vehicle: saline with Tween-80
[9] = dose: 200.0 mg/kg/injection, schedule: Q01DX009 (ip), vehicle: saline with Tween-80
[10] = dose: 400.0 mg/kg/injection, schedule: Q01DX009 (ip), vehicle: saline with Tween-80

With `CC(CN(C)C)CN1c2ccccc2CCc2ccccc21` (stereo not given) the survivor count (dose: 35.0 mg/kg/injection, schedule: Q01DX009 (ip), vehicle: saline) was 10 of 10.
With `CCCCCCCCCCCCc1ccc(CS)cc1` the survivor count (dose: 400.0 mg/kg/injection, schedule: Q01DX009 (ip), vehicle: saline) was 9 of 10.
`COC(C(=O)C(O)C(C)O)C1Cc2cc3cc(OC4CC(OC(C)=O)C(OC5CC(O)C(OC)C(C)O5)C(C)O4)cc(O)c3c(O)c2C(=O)C1OC1CC(OC2CC(OC3CC(C)(O)C(OC(=O)C(C)C)C(C)O3)C(O)C(C)O2)C(O)C(C)O1` (stereo not given) was tested, and the T/C (dose: 0.12 mg/kg/injection, schedule: Q01DX009 (ip), vehicle: saline with Tween-80) was 138 % of control, the T/C (dose: 0.12 mg/kg/injection, schedule: Q01DX009 (ip), vehicle: saline) was 128, 136, 138 % of control and the T/C [1] was 137 % of control. The T/C [2] was 140, 153, 159 % of control (2×), the T/C (dose: 0.5 mg/kg/injection, schedule: Q01DX009 (ip), vehicle: saline) was 130 % of control and the T/C [3] was 156, 169, 180, 197 % of control. For the same compound, the T/C (dose: 1.0 mg/kg/injection, schedule: Q01DX009 (ip), vehicle: saline) was 142 % of control, the T/C (dose: 2.0 mg/kg/injection, schedule: Q01DX009 (ip), vehicle: saline with Tween-80) was 146, 179, 180, 186 % of control [9 of 10 alive] and the survivor count (dose: 2.0 mg/kg/injection, schedule: Q01DX009 (ip), vehicle: saline) was 10 of 10. The survivor count (dose: 4.0 mg/kg/injection, schedule: Q01DX009 (ip), vehicle: saline with Tween-80) was 0 of 10, 3 of 10, 9 of 10, the survivor count (dose: 4.0 mg/kg/injection, schedule: Q01DX009 (ip), vehicle: saline) was 6 of 10 and 9 of 10 and the survivor count (dose: 8.0 mg/kg/injection, schedule: Q01DX009 (ip), vehicle: saline with Tween-80) was 0 of 10.
`CCC1(O)CC2CN(CCc3c([nH]c4ccccc34)C(C(=O)OC)(c3cc4c(cc3OC)N(C)C3C(O)(C(=O)NCCSSCCNC(=O)C5(O)C(O)C6(CC)C=CCN7CCC8(c9cc(C%10(C(=O)OC)CC%11CN(CCc%12c%10[nH]c%10ccccc%12%10)CC(O)(CC)C%11)c(OC)cc9N(C)C58)C76)C(O)C5(CC)C=CCN6CCC43C65)C2)C1` (stereo not given) was tested, and the T/C (dose: 0.25 mg/kg/injection, schedule: Q04DX003 (ip), vehicle: saline) was 137 % of control, the T/C (dose: 0.38 mg/kg/injection, schedule: Q01DX009 (ip), vehicle: saline) was 139 % of control and the T/C (dose: 0.5 mg/kg/injection, schedule: Q04DX003 (ip), vehicle: saline) was 132 % of control. For the same compound, the survivor count (dose: 1.8 mg/kg/injection, schedule: Q01DX009 (ip), vehicle: saline) was 9 of 10, the survivor count (dose: 2.0 mg/kg/injection, schedule: Q04DX003 (ip), vehicle: saline) was 8 of 10 and the survivor count (dose: 3.0 mg/kg/injection, schedule: Q01DX009 (ip), vehicle: saline) was 5 of 10. The T/C (dose: 233.0 micrograms/kg/injection, schedule: Q04DX003 (ip), vehicle: saline) was 130 % of control, the T/C (dose: 389.0 micrograms/kg/injection, schedule: Q04DX003 (ip), vehicle: saline) was 147 % of control and the T/C (dose: 648.0 micrograms/kg/injection, schedule: Q04DX003 (ip), vehicle: saline) was 131 % of control. For the same compound, the T/C (dose: 1080.0 micrograms/kg/injection, schedule: Q04DX003 (ip), vehicle: saline) was 130 % of control, the T/C (dose: 1800.0 micrograms/kg/injection, schedule: Q04DX003 (ip), vehicle: saline) was 133 % of control and the survivor count (dose: 3000.0 micrograms/kg/injection, schedule: Q04DX003 (ip), vehicle: saline) was 9 of 10 and 10 of 10.
For `Cc1cccc(C)c1NS(=O)(=O)c1ccccc1`, the survivor count (dose: 100.0 mg/kg/injection, schedule: Q01DX009 (ip), vehicle: Klucel (hydroxypropylcellulose) (HPC)) was 10 of 10.
In the case of `CCC1CCCCC1(O)CC` (stereo not given), the survivor count [4] is reported as 10 of 10.
For `CC(=O)NC(Cc1ccc(N(CCCl)CCCl)cc1)C(=O)O` (stereo not given), the T/C [5] was 127 % of control and the survivor count [6] was 10 of 10.
With `Cc1cccc(NC(=O)Nc2ccccc2)c1C` the survivor count [4] was 8 of 10 and the survivor count [7] was 9 of 10.
`CCCCCCCCCCCCCCCC(=O)N(C/C=C/CN(C(=O)CCCCCCCCCCCCCCC)C(C)CCCN(CC)CC)C(C)CCCN(CC)CC` (stereo not given) was tested, and the survivor count (dose: 25.0 mg/kg/injection, schedule: Q01DX009 (ip), vehicle: other) was 10 of 10 and the survivor count (dose: 50.0 mg/kg/injection, schedule: Q01DX009 (ip), vehicle: other) was 5 of 10.
`COc1cc2c(c(OC)c1OC)-c1ccc(OC)c(=O)cc1[C@@H](NC(=O)CCl)CC2` was tested, and the T/C (dose: 0.06 mg/kg/injection, schedule: Q01DX009 (ip), vehicle: saline with Tween-80) was 128 and 129 % of control, the T/C (dose: 0.13 mg/kg/injection, schedule: Q01DX009 (ip), vehicle: saline with Tween-80) was 133 and 136 % of control and the T/C [1] was 135 % of control. The survivor count [2] was 9 of 10 and the survivor count [3] was 7 of 10 and 9 of 10.
For `CCOC(=O)/C=C/c1ccc2c(c1)OCO2`, the T/C (dose: 100.0 mg/kg/injection, schedule: Q04DX003 (ip), vehicle: saline with Tween-80) was 143 % of control, the T/C (dose: 200.0 mg/kg/injection, schedule: Q04DX003 (ip), vehicle: saline with Tween-80) was 133 % of control and the T/C (dose: 400.0 mg/kg/injection, schedule: Q04DX003 (ip), vehicle: saline with Tween-80) was 125 % of control [9 of 10 alive].
In the case of `NC(=O)C(Cc1ccccc1)NC(=O)C(Cc1ccccc1)NC(=O)C(Cc1ccccc1)NC(=O)OCc1ccccc1` (stereo not drawn) (Cbz-Phe-Phe-Phe-NH2; configuration not given here), the survivor count [6] is reported as 10 of 10, the survivor count [8] is reported as 10 of 10 and the survivor count [9] is reported as 10 of 10. The survivor count [10] was 10 of 10.
For `CC1CN1P(=S)(Oc1ccccc1)N1CC1C` (stereo not given), the survivor count [9] was 10 of 10.
In the case of `Cc1ccc2nc(-c3cc(Br)ccc3O)c(-c3cc(Br)ccc3O)nc2c1`, the survivor count [7] is reported as 10 of 10.
With `NC(=S)N/N=C/c1ccc(OC(=O)COc2ccc(Cl)cc2)cn1` the survivor count [9] was 10 of 10 and the survivor count [10] was 7 of 10.
For `CCCCCCCCCCCCCCCC[N+](C)(C)c1nc(Cl)nc(Cl)n1`, the survivor count (dose: 7.5 mg/kg/injection, schedule: Q01DX009 (ip), vehicle: saline with Tween-80) was 6 of 6, the survivor count (dose: 15.0 mg/kg/injection, schedule: Q01DX009 (ip), vehicle: saline with Tween-80) was 6 of 6 and the survivor count (dose: 16.0 mg/kg/injection, schedule: Q01DX009 (ip), vehicle: saline with Tween-80) was 6 of 6. For the same compound, the survivor count (dose: 30.0 mg/kg/injection, schedule: Q01DX009 (ip), vehicle: saline with Tween-80) was 4 of 6 and the survivor count (dose: 60.0 mg/kg/injection, schedule: Q01DX009 (ip), vehicle: saline with Tween-80) was 1 of 6.
With `NC(=O)CC(N)C(=O)O.[Cl-].[Cl-].[Cl-].[Cl-].[Pt+2]` (stereo not given) the T/C (dose: 0.78 mg/kg/injection, schedule: Q01DX009 (ip), vehicle: saline) was 135 % of control, the T/C (dose: 6.25 mg/kg/injection, schedule: Q01DX009 (ip), vehicle: saline) was 131 % of control and the T/C (dose: 12.5 mg/kg/injection, schedule: Q01DX009 (ip), vehicle: saline) was 127 % of control.
`COc1ccc(C(=O)C(=O)c2ccc(OC)c(OC)c2)cc1OC` was tested, and the survivor count [5] was 10 of 10, the survivor count (dose: 25.0 mg/kg/injection, schedule: Q01DX009 (ip), vehicle: saline with Tween-80) was 10 of 10 and the survivor count [6] was 10 of 10. The survivor count [8] was 10 of 10, the survivor count [9] was 10 of 10 and the survivor count [10] was 10 of 10.
With `O=[N+]([O-])CC1(O)CCCCC1` the survivor count (dose: 50.0 mg/kg/injection, schedule: Q01DX009 (ip), vehicle: Klucel (hydroxypropylcellulose) (HPC)) was 7 of 10.
